Measurements from “University of Dundee, Small-Polar-MMV Screening Library” (2021), ChEMBL document CHEMBL3988442.

A: 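Whole-cell growth test on Mycobacterium tuberculosis, read after 4 days in a medium based on cholesterol and the lipid DPPC; the read-out is not stated. Compounds at 50 µM. Higher reads as more growth inhibition (inferred: compounds with an IC50 in retests scored well above the rest). Of about 69,000 compounds tested this way, about 370 (0.54%) reached 50% or more in at least one test.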
B: 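Growth of Mycobacterium tuberculosis over 3 days (7H9 medium with glucose and tyloxapol); the read-out is not stated. Concentration: 50 µM. Direction is inferred from retests: higher values go with more growth inhibition. Size under these conditions: about 69,000 compounds, about 760 of them at 50% or above in at least one test.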

Values are the deposited “Percent Effect”, in %.
The record does not define 0% and 100%; most values in the screen are far below 50% and negative numbers occur (in some assays of this library far below -100).
The compounds are a random part of those screened.
Two or more numbers in one place are separate tests of the same structure; such repeats can differ widely.

structure,A,B
Cc1cc2c(c(-c3cncc(C(=O)N4CCCC4)n3)c1)OC(CN)C2 (stereo not drawn),2.958,-3.997
O=C(O)C(F)(F)F.O=C(O)C(F)(F)F.[H][C@@]12CCCO[C@]1([H])[C@H](N(C)C)CN(Cc1ccco1)C2,-22.84,-19.91
CCN(Cc1csc(CS(C)(=O)=O)n1)c1cccc(F)c1,5.894 and -5.65,27.07
CCc1ccc(C(=O)NC2CCc3nc(C)cn3C2)o1 (stereo not drawn),10.85,20.81
COc1ccc(NC(C)C(=O)N2CCN(c3ncccn3)CC2)cn1 (stereo not drawn),-16.67,-0.1407 and -11.34
COCC(NC(=O)NCc1cccc(C#N)c1)c1ccco1 (stereo not drawn),-2.098,-27.53
Cc1cc(NC(=O)CN2CCN(c3nc(C)cs3)C(C)C2)on1 (stereo not drawn),10.94,-13.24
Cc1ccc(CNC2CC3(CCN(CCO)CC3)c3ccccc32)s1.O=C(O)C(F)(F)F.O=C(O)C(F)(F)F (stereo not drawn),10.68,34.87
CCC(=O)Nc1cc(Br)cn(C)c1=O,-14.2,-16.31
Cc1nccn1-c1ccc(N2CCC(N[C@H](C)C(C)C)CC2)cc1,-0.7664 and 17.19,19.8
O=C(c1cn(CCN2CCCCC2)nn1)N1CCSCC1,-19.29,-8.603
CCC(Nc1ncccn1)c1cccnc1 (stereo not drawn),9.895 and -0.8343,13.37
[H][C@]12CN(CCOC)C(=O)[C@@]1([H])CN(c1cnccn1)C2,-16.31,-5.1
[H][C@]12CCN(C(=O)c3ccncc3)CC[C@@]1([H])S(=O)(=O)N(CC(=O)N(C)C)C2,20.67 and -4.565,6.629 and 8.126
CCOCC1CN(C(=O)c2ccoc2)Cc2nn(C)cc21 (stereo not drawn),-2.684,-1.078 and 10.91
Cc1cc(C)nc(N2CCC(c3cc(CCO)[nH]n3)C2)n1 (stereo not drawn),-3.052 and -12.38,-21.69
Cc1nc(CN2CCOC(Cn3cccn3)C2)no1 (stereo not drawn),-0.4547,-26.58
Cc1csc(CN(C)CCOc2ccccc2)n1,49.89,44.16
Cc1nsc(N2CCN(Cc3cccc(F)c3)CC2)n1,6.279,1.696 and 11.6
Cc1cc(C)c(S(=O)(=O)Nc2c(C)nc(N3CCCC3)nc2C)cc1C,-1.155,24.04 and 1.669
CC(=O)N[C@@H]1CN(Cc2ccccc2C#N)C[C@H]1c1ccc(C)cc1,-0.5771,-1.811
O=c1oc(-c2ccc(F)cc2)nn1CC1CCCCO1 (stereo not drawn),44.68,46.27 and 44.88
Cc1cc(NC(=O)c2ccc(C)c(F)c2)[nH]n1,1.646,-8.067
Cc1noc(CCNC(=O)NCc2ccc(OC3CCCC3)cc2)n1,1.098 and 24.01,9.896
CCc1nnc2n1CCN(C(=O)c1nc(-c3ccco3)sc1C)C2,-2.967,-38.19
Cc1ccc(CNC(=O)NCC(=O)NC(C)(C)C)c(N2CCCC2)c1,-3.805,9.961 and -7.947
Cc1cc(N2CCOCC(Cc3ccc4[nH]ccc4c3)C2)ncn1 (stereo not drawn),19.25,42
Cc1nc2c(c(NCC(O)C(F)(F)F)n1)CCNCC2 (stereo not drawn),6.526,-23.24
O=C(NCc1nncn1-c1ccccc1)C1CCCC1,-43.87,-15.39
CCCn1ccnc1SCC(=O)NC(Cc1ccccc1)C(C)=O (stereo not drawn),-19.2,-4.279
O=C(c1ccn(-c2cccc(Cl)c2)n1)N1CCN(C2CC2)CC1,3.584,10.23
CC(C)(C)C(=O)NC(c1nccs1)C1CCN(CC2CCCCC2)CC1.Cl (stereo not drawn),-9.173,6.154
Cc1nc(C)n(CC2CCCN(Cc3nc(C)c(C)o3)C2)n1 (stereo not drawn),-22.02,5.785
O=C(Cc1ccccc1C(F)(F)F)N1CCC2(CC1)OCCCC2O (stereo not drawn),-6.193,-12.77
O=C(Cn1ccc2ncccc2c1=O)N1CCCCC1,-13.64,-5.084 and 4.395
CCC1=NN2C(=N)/C(=C\c3cccn3-c3ccc(Cl)cc3)C(=O)N=C2S1,-22.58,-22.79
O=C1CCC2(CCNCC2)CN1CCCNc1cccnc1,-1.429,-11.51
CN(CC(=O)Nc1cccnc1)C1CCCN(c2cccnn2)C1 (stereo not drawn),-29.28,-48.71
CN(C)CC(=O)N1CCC2(CC1)COCCN(Cc1ccncc1)C2,14.63 and -10.11,-5.794
CCC(NC(=O)c1cc(OC)c2c(c1)OCCO2)c1cccs1 (stereo not drawn),5.196,5.26
COc1cc(N2CCC3(CCN(Cc4nccs4)CC3)C2)ncn1.O=C(O)C(F)(F)F,5.526,22.8
CCNC(=O)[C@@H]1C[C@@H](n2cc(CC3CCCCC3)nn2)CN1,2.233 and -11.69,-21.42
O=C(NCc1ccc(C(=O)O)o1)c1ccc(F)cc1,-1.709,18.86
CCOC(=O)c1cnn(-c2cc(C)ccn2)c1N,-14.23,11.7 and 30.21
O=C(c1cnccn1)N1CCC(CN2CCOCC2)CC1,-10.16,-1.757
CC1=C[C@@H](CN2CCOCC2)[C@H](C(C)C)C[C@H]1Cc1nnc(C)o1,1.746,-2.167 and 15.93
CN(C)S(=O)(=O)N1CC(c2nc(-c3ccsc3)no2)C1,19.2,9.142
CS(=O)(=O)CCC(=O)NC1CC(c2ccccc2Cl)C1 (stereo not drawn),-17.97,35.85
Clc1ccc(C2(CNC3=NCCN3)CCCC2)cc1.I,25.1,55.47
CC(C(=O)N1CCCN(Cc2cscn2)CC1)N1CCOCC1 (stereo not drawn),-32.38,-28.01
COCc1ccc(C(=O)N2CCN(CC(C)O)CC2)cc1 (stereo not drawn),-20.54,2.565
CCn1nc(C)c(CN(CCOC)C(=O)c2ccccc2N(C)C)c1C,-2.039 and -12.51,-5.199
COc1cccc2cc(CNCc3ccc(N4CCCC4)nc3)oc12,-1.679,-9.595 and -5.291
CN(Cc1ccc(F)cc1F)Cc1cc2c(cc1Br)OCCO2,12.75,24.5
Cc1nc(CN2CCc3ncnc(-c4ccsc4)c3CC2)cs1.O=C(O)C(F)(F)F,-16.94,14.85
O=c1cc(Cn2cncn2)nc2n1CCCN(Cc1ccoc1)C2,-11.97,-20.2
O=C(CCN1CCSCC1c1ccccc1)N1CCOCC1 (stereo not drawn),-15.36,-10.58
COc1cc(Nc2c(C#N)c(=O)n(C)c(=O)n2C)cc(OC)c1,-3.85,-0.5747 and -2.462
OC1(c2cn(C3CCN(C4CCSC4)CC3)nn2)CCCC1 (stereo not drawn),-4.104,23.54
COC(=O)CNC(=O)C1CCN(S(C)(=O)=O)CC1,-9.371,-11.87
CNC(=O)c1ccc(S(=O)(=O)NCc2cccnc2N(C)C)cc1,15.39,-41.87
COCCN(c1ccncc1)S(=O)(=O)c1cc(C)cc(F)c1,-4.696,12.89 and 2.479
Cc1cc(C)n(C2CCCN(C(=O)CCCc3ccccn3)C2)n1 (stereo not drawn),-13.81,21.24
N#Cc1cccnc1Nc1ccc(N2CCC(C(N)=O)CC2)cc1,-0.07924,-2.128 and 2.146
CCN1CC2(CC1=O)CN(C(C)=O)CCN(C(=O)c1ccco1)C2 (stereo not drawn),2.066,24.4
O=C(c1ccc(-n2ccnc2)cc1)N1CCCC(n2ccnc2)C1 (stereo not drawn),0.9431,3.131 and 6.774